According to patent publication US20250332154A1, “USE OF NAPHTHOQUINE PHOSPHATE IN PREPARATION OF A MEDICAMENT FOR TREATING AUTOIMMUNE DISEASES” (SHANGHAI PHARMACEUTICALS INDUSTRY CO., LTD, priority 2022, published 2025):

How the values were obtained:
Settings in all cases: SI = CC50/IC50
[1] = test system: mouse whole spleen lymphocytes (ConA-induced T cell activation and proliferation); experiment: ConA-induced lymphocyte proliferation assay (3H-thymidine); type: cell-based
Method: (§1) BALB/c mice were sacrificed by cervical dislocation, and spleens were aseptically excised to prepare whole spleen lymphocytes. The cells were adjusted to the required concentration.
(§2) A suspension of mouse spleen lymphocytes was inoculated into a 96-well plate at 5×10^5/well, and ConA (final concentration: 1 μg/ml) or LPS (final concentration: 10 μg/ml) and the above 10 concentration gradients of the compound were added. Corresponding cell control wells without ConA and LPS, as well as medicament-free stimulated control wells, were set up. The cells were cultured in a 37° C., 5% CO2 incubator for 48 hours. Eight hours before the end of the culture, ^3H-thymidine was added, and the culture continued until the end of the experiment (i.e., the aforementioned 48 hours). The cells were collected onto glass fiber membranes using a cell collector.
(§3) ConA and LPS, as mitogens, stimulated proliferation and differentiation of T and B lymphocytes, respectively. This process is similar to the activation process of lymphocytes in vivo. Therefore, mitogen-induced lymphocyte proliferation is commonly used as an indicator to evaluate functionality of lymphocytes.

[2] = test system: mouse whole spleen lymphocytes (LPS-induced B cell activation and proliferation); experiment: LPS-induced lymphocyte proliferation assay (3H-thymidine); type: cell-based
Method: as §1, §2, §3

IL-1β [3] = experiment: IL-1β production by LPS-induced RAW264.7 cells (ELISA); type: cell-based, mouse
Method: RAW264.7 cells were inoculated into a 96-well plate at 1×10^5/well and allowed to adhere to the wall for 6 hours in a 37° C., 5% CO2 incubator. […] After the cells adhered to the wall, the stimulant LPS (final concentration: 10 μg/ml) and the gradient-diluted compounds were added. A corresponding stimulation control and a cell control (without stimulation) were set up. After the end of the culture, the cell culture supernatants were collected, and the levels of TNF-α, IL-1β and IL-6 were measured by ELISA.

[4] = test system: mouse whole spleen lymphocytes; experiment: TLRs-L-stimulated proliferation of mouse whole spleen lymphocytes (3H-TdR); type: cell-based
Method: (§4) BALB/c mice were sacrificed by cervical dislocation, and spleens were aseptically excised to prepare whole spleen lymphocytes. The cells were adjusted to 5×10^6 cells/ml. Hydroxychloroquine sulfate was diluted with a 3-fold gradient into 3 concentrations starting from 30 μM: 30, 10 and 3 μM; naphthoquine phosphate was diluted with a 3-fold gradient into 3 concentrations starting from 10 μM: 10, 3 and 1 μM.
A suspension of mouse spleen lymphocytes was inoculated into a 96-well plate at […], and the stimulant TLR4-L (final concentration: 10 μg/ml), TLR7-L (final concentration: 5 μg/ml) or TLR9-L (final concentration: 1 μM) and compounds diluted with the above concentration gradients were added. A corresponding stimulation control and a cell control (without stimulation) were set up. The cells were cultured in a 37° C., 5% CO2 incubator for 48 hours. Eight hours before the end of culture, ^3H-TdR was added, and the culture continued until the end of the experiment. The cells were collected onto glass fiber membranes using a cell collector. 5 ml scintillation fluid was added, and the values of radioactive counts per minute were read on a Beta counter (2450 Microplate Counter, PerkinElmer).

IgG [5] = experiment: IgG secretion by TLRs-L-stimulated mouse whole spleen lymphocytes (ELISA); type: cell-based
Method: as §4
(§5) Mouse spleen lymphocytes were inoculated into a 96-well plate at 100 μl/well, and the stimulant TLR4-L (final concentration: 10 μg/ml), TLR7-L (final concentration: 5 μg/ml) or TLR9-L (final concentration: 1 μM) and the compounds diluted with the above concentration gradients were added. A corresponding stimulation control and a cell control (without stimulation) were set up. The cells were cultured in a 37° C., 5% CO2 incubator for 120 hours. After the end of the culture, the cell culture supernatants were collected, and the levels of IgG and IgM were measured by ELISA.

IgM [6] = experiment: IgM secretion by TLRs-L-stimulated mouse whole spleen lymphocytes (ELISA); type: cell-based
Method: as §4, §5

IL-1β [7] = experiment: IL-1β secretion by TLRs-L-stimulated mouse whole spleen lymphocytes (ELISA); type: cell-based
Method: as §4
as §5, with “48” for “120”, “IL-1β, IL-6,” for “IgG”, “IL-10” for “IgM”

IL-6 [8] = experiment: IL-6 secretion by TLRs-L-stimulated mouse whole spleen lymphocytes (ELISA); type: cell-based
Method: as §4
as §5, with “48” for “120”, “IL-1β, IL-6,” for “IgG”, “IL-10” for “IgM”

IL-10 = IL-10 secretion by TLRs-L-stimulated mouse whole spleen lymphocytes (ELISA); type: cell-based
Method: as §4
as §5, with “48” for “120”, “IL-1β, IL-6,” for “IgG”, “IL-10” for “IgM”

purified mouse B cells = experiment: B cell proliferation assay, TLRs-L-stimulated purified mouse B cells (3H-TdR); type: cell-based
Method: (§6) BALB/c mice were sacrificed by cervical dislocation, and spleens were aseptically excised to prepare spleen lymphocytes. The cells were adjusted to 1×10^8 cells/ml, blocked with 2.4G2 (final concentration: 10 μg/ml) for 20 min, cultured with PE-CD19 (final concentration: 5 μg/ml) for 20 min, washed with MACS buffer, centrifuged at 4° C., 300G for 10 min, 100 μl anti-PE beads were added per 1×10^8 cells, incubated with 900 μl MACS buffer for 15 min, washed with MACS buffer, centrifuged at 4° C., 300G for 10 min. The supernatant was discarded. 500 μl MACS buffer was added per 1×10^8 cells to resuspend the cells. MACS column was used for separation. Magnetically labeled cells were retained on the column. The MACS column was removed from the magnetic field and then eluted.
Hydroxychloroquine sulfate was diluted 2-fold into 3 concentrations starting from 8 μM: 8, 4 and 2 μM. Naphthoquine phosphate was diluted 2-fold into 3 concentrations starting from 0.5: 0.5, 0.25 and 0.125 μM. A suspension of purified mouse B cells was inoculated into a 96-well plate at 4×10^5/well, and the stimulant TLR4-L (final concentration: 10 μg/ml), TLR7-L (final concentration: 5 μg/ml) or TLR9-L (final concentration: 1 μM) and the gradient diluted compounds were added. A corresponding stimulation control and a cell control (without stimulation) were set up. The cells were cultured in 37° C., 5% CO2 incubator for 48 hours. Eight hours before the end of the culture, ^3H-TdR was added, and the culture was continued until the end of the experiment. The cells were collected onto glass fiber membranes using a cell collector. 5 ml scintillation fluid was added, and the values of radioactive counts per minute were read on a Beta counter (2450 Microplate Counter, PerkinElmer).

IL-6 [9] = experiment: IL-6 secretion by TLRs-L-stimulated purified mouse B cells (ELISA); type: cell-based
Method: as §6
(§7) A suspension of purified mouse B cells was inoculated into a 96-well plate at 4×10^5/well. Hydroxychloroquine sulfate was diluted with a 2-fold gradient into 3 concentrations starting from 8 μM: 8, 4 and 2 μM. Naphthoquine phosphate was diluted with a 2-fold gradient into 3 concentrations 0.5 μM.: 0.5, 0.25 and 0.125 μM. The stimulant TLR4-L (final concentration: 10 μg/ml), TLR7-L (final concentration: 5 μg/ml) or TLR9-L (final concentration: 1 μM) and gradient diluted compounds were added. A corresponding stimulation control and a cell control (without stimulation) were set up. The cells were cultured in a 37° C., 5% CO2 incubator for 48 hours. After the end of the culture, the cell culture supernatants were collected, and the levels of TNF-α, IL-1β, and IL-6 were measured by ELISA.

IgG [10] = experiment: IgG secretion by TLRs-L-stimulated purified mouse B cells (ELISA); type: cell-based
Method: as §6
as §7, with “into 3 concentrations, starting from” for “into 3 concentrations starting from”, “3 concentrations starting from 0.5 μM.:” for “3 concentrations 0.5 μM.:”, “incubator for 120 hours. After” for “incubator for 48 hours. After”, “levels of IgG and IgM” for “levels of TNF-α, IL-1β, and IL-6”, “IgG and IgM were measured” for “IL-1β, and IL-6 were measured”

IgM [11] = experiment: IgM secretion by TLRs-L-stimulated purified mouse B cells (ELISA); type: cell-based
Method: as §6
as §7, with “into 3 concentrations, starting from” for “into 3 concentrations starting from”, “3 concentrations starting from 0.5 μM.:” for “3 concentrations 0.5 μM.:”, “incubator for 120 hours. After” for “incubator for 48 hours. After”, “levels of IgG and IgM” for “levels of TNF-α, IL-1β, and IL-6”, “IgG and IgM were measured” for “IL-1β, and IL-6 were measured”

Structure (SMILES)	ConA SI [1]	LPS SI [2]	IB-1β SI (IL-1β [3])	Proliferation SI ([4]; TLR4-L)	Proliferation SI ([4]; TLR7-L)	Proliferation SI ([4]; TLR9-L)	IgG SI (IgG [5]; TLR9-L)	IgM SI (IgM [6]; TLR4-L)	IgM SI (IgM [6]; TLR9-L)	IB-1β SI (IL-1β [7]; TLR4-L)	IL-6 SI (IL-6 [8]; TLR4-L)	IL-6 SI (IL-6 [8]; TLR7-L)	IL-6 SI (IL-6 [8]; TLR9-L)	IL-10 SI (IL-10; TLR4-L)	IL-10 SI (IL-10; TLR7-L)	IL-10 SI (IL-10; TLR9-L)	Proliferation SI (purified mouse B cells; TLR4-L)	IL-6 SI (IL-6 [9]; TLR4-L)	IgG SI (IgG [10]; TLR4-L)	IgM SI (IgM [11]; TLR4-L)	also measured
CCN(CC)CCCC(C)Nc1ccnc2cc(Cl)ccc12 (stereo not drawn) [Chloroquine Phosphate]	1.9	1.79	–	–	–	–	–	–	–	–	–	–	–	–	–	–	–	–	–	–	–
CCN(CCO)CCCC(C)Nc1ccnc2cc(Cl)ccc12 (stereo not drawn) [Hydroxychloroquine Sulfate, hydroxychloroquine sulfate]	1.5	1.69	6.96	4.079	1.422	3.066	4.790	1.066	10.754	0.843	1.759	14.147	6.868	8.454	24.323	8.177	1.98	<2.47	<2.47	<2.47	IgG SI (IgG [5]; TLR4-L): 1.482; IgG SI (IgG [5]; TLR7-L): 1.002; IgM SI (IgM [6]; TLR7-L): 1.402; IB-1β SI (IL-1β [7]; TLR9-L): 0.648
CC(C)(C)NCc1cc(Nc2ccnc3cc(Cl)ccc23)c2c(c1O)CCCC2.O=P(O)(O)O.O=P(O)(O)O [Naphthoquine Phosphate, Naphthoquine phosphate]	3.5	17.71	5.48	12.316	1.513	7.304	4.888	1.881	0.84	0.475	2.524	233.824	5.483	14.972	40.769	8.364	10.46	3.93	4.82	9.37	Proliferation SI (purified mouse B cells; TLR7-L): 5.70 and 9.18; Proliferation SI (purified mouse B cells; TLR9-L): 5.99 and 8.68; IL-6 SI (IL-6 [9]; TLR7-L): 5.99 and 5.30; IL-6 SI (IL-6 [9]; TLR9-L): 4.89 and 8.59; IgG SI (IgG [10]; TLR7-L): 2.60 and <3.97; IgG SI (IgG [10]; TLR9-L): 4.34 and 4.91; IgM SI (IgM [11]; TLR7-L): 2.71 and <3.97; IgM SI (IgM [11]; TLR9-L): 9.81 and 19.03

Values joined by “and” are separate entries in the source; they are usually repeats but may differ in a detail not shown here. Equal values may be shown once. Where a name gives a salt, the structure may show the parent alone.
